Experimental data: PubChem BioAssay AID1259425 (University of Nebraska Medical Center, 2018)

Purpose: 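Compare each knockdown with KSR1 silencing using changes in marker transcripts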 (primary screen)
Cells: HCT116 human colon cancer cells
Reagents: siRNA pool against human genes, 50 nM siRNA
Detection: 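After 50 nM siRNA pool, branched-DNA assay measures six marker transcripts per well, minus blank, normalised to the geometric mean of two housekeeping transcripts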
Reading the numbers: BNIP3L mRNA: higher = more BNIP3L transcript after knockdown
Shown is an unselected part of about 14,000 reagents tested. Further read-outs or replicates are left out here. Not given: the time to read-out.

| gene | BNIP3L mRNA, set 1 |
| --- | --- |
| ALMS1 | 0.0449 |
| ADAMTS19 | 0.081 |
| KRT20 | 0.0453 |
| LMAN1 | 0.0484 |
| TNRC6C | 0.0664 |
| CARD6 | 0.117 |
| CCT6A | 0.0835 |
| RCC1 | 0.14 |
| CTNNA1 | 0.124 |
| BDNF | 0.103 |
| EEF1E1 | 0.187 |
| TTK | 0.135 |
| DONSON | 0.239 |
| NDUFS4 | 0.0795 |
| FCGBP | 0.119 |
| RHNO1 | 0.149 |
| NF2 | 0.114 |
| RYR3 | 0.117 |
| HYPK | 0.123 |
| SCHIP1 | 0.0682 |
| NUB1 | 0.234 |
| ST8SIA5 | 0.117 |
| CCT8 | 0.153 |
| SCN4B | 0.102 |
| SERPINC1 | 0.0901 |
| SERPINB9 | 0.115 |
| FKBP15 | 0.065 |
| SOX9 | 0.0553 |
| OPRK1 | 0.0551 |
| ABHD17B | 0.249 |
| ZNF211 | 0.169 |
| PPP4R1L | 0.107 |
| KIF21B | 0.0754 |
| KRT38 | 0.0878 |
| P2RY10 | 0.246 |
| PPIL1 | 0.0785 |
| KRT23 | 0.0517 |
| RAB21 | 0.116 |
| GP9 | 0.128 |
| CSRNP3 | 0.0861 |
| ATP1A1 | 0.165 |
| TRMT9B | 0.0385 |
| DEFB126 | 0.0779 |
| MS4A12 | 0.068 |
| RPS15 | 0.058 |
| SNF8 | 0.114 |
| DRAP1 | 0.108 |
| CD1D | 0.131 |
| PCDHGB1 | 0.0803 |
| BCL2L14 | 0.102 |
